Drawing on paper PMC10146638 (Viruses, 2023), this text covers binding for one molecule.

These are yes or no findings as the source states them, for the method shown.

In this experiment the target is OVA (UniProt P01012). Briefly: SPR; both purified. On the technique in general: In SPR one partner is held on a chip, and binding of the other changes the refractive index at the surface.

As to WWHEKE [peptide number 15 (P15; WWHEKE)], the binding entry is reported as “no binding”.
